# According to PubChem BioAssay AID651640 (Broad Institute, 2012):
# Hit rate of the full screen: of about 350,000 compounds, about 6,000 (1.7%) were called active. This list was built around the results that the source calls inconclusive (neither active nor inactive); the mix of calls is not that of the screen. Cut-off read from the data, not from the text of the source: active = CPE inhibition above about 20% (passing the limit was not always enough); inconclusive = no clear call, values can overlap the other calls; tested in BHK-21 cells.
# Test: protection of cells from dengue 2 killing – plate reader, single concentration, primary screen (AID 651640);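 note: 0% = median of neutral control wells and 100% = median of positive control wells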
# Conditions: DENV2-infected cells, cytopathic effect rescue, at 9.99 µM, hits give high values
row,Compound,CPE inhibition
1,COc1ccc(NC(=O)Nc2ccc3c(c2)C(=O)N([C@@H](C)CO)C[C@@H](C)[C@@H](CN(C)Cc2ccc4c(c2)OCO4)OCCCC[C@@H](C)O3)cc1,active: 34.1%
2,Cc1ccc(C(=O)NCCc2cc3ccc(C)c(C)c3[nH]c2=O)cc1[N+](=O)[O-],active: 50.1%
3,CCOC(=O)N1CCN(C(=O)CSc2nc(=O)n3cc(C)ccc3n2)CC1,inconclusive: 69.4%
4,COc1ccc(NC(=O)N2C[C@H]3[C@@H](c4ccccc42)[C@H](CO)N3C(=O)C2CC2)cc1,inactive: 1.45%
5,CC1CCN(CC(=O)Nc2ccc(S(=O)(=O)N3CCC(C)CC3)cc2)CC1,inconclusive: 21.3%
6,O=C(O)CN1C(=O)/C(=C/c2ccc(N3CCCCC3)o2)SC1=S,inactive: 7.16%
7,COc1ccc(OC)c(Cc2nnc(CCC(=O)N3CCCCC3c3nccs3)o2)c1 (stereo not given),inconclusive: 29.5%
8,COc1ccc(/C=N/Nc2ccc([N+](=O)[O-])cc2)cc1O,inconclusive: 25.2%
9,CCN(CC)C(=O)c1ccc2sc([C@H]3C[C@H](O)[C@@H](CO)O3)nc2c1,inconclusive: 28.3%
10,COc1ccc(C#Cc2cnc3c(c2)C(=O)N([C@H](C)CO)C[C@@H](C)[C@H](CN(C)CC2CCOCC2)O3)cc1,inconclusive: 21.8%
11,CCc1nc2sc(C(C)=O)c(N)c2c2c1CCCC2,inconclusive: 20.1%
12,C[C@H]1CN([C@@H](C)CO)C(=O)c2cc(NS(=O)(=O)c3cccs3)ccc2O[C@H]1CN(C)C(=O)NC1CCCCC1,inconclusive: 28.4%
13,CCCNC(=O)c1n[nH]c2c1CC(C(C)(C)CC)CC2 (stereo not given),inconclusive: 41.6%
14,COc1ccc(C#Cc2ccc3c(c2)O[C@H](CN(C)C(=O)c2ccccn2)[C@@H](C)CN([C@@H](C)CO)S3(=O)=O)cc1,inactive: 15%
15,CN1CC[C@@H]2CN(S(=O)(=O)c3ccccc3)[C@H](c3ccccc3Br)C[C@@H]21,inconclusive: 21.4%
16,C[C@@H]1CCCCO[C@H](CN(C)C(=O)Nc2ccc(C(F)(F)F)cc2)[C@@H](C)CN([C@@H](C)CO)C(=O)c2cc(NC(=O)Cc3ccccc3)ccc2O1,active: 42.2%
17,COc1ccc(OC)c(S(=O)(=O)N2CCCC(C(=O)NC3CC3)C2)c1 (stereo not given),inconclusive: 41.4%
18,COc1cccc(NS(=O)(=O)c2cc3[nH]c(=O)c(=O)[nH]c3cc2C)c1,inconclusive: 55.5%
19,O=C(c1cnccn1)N1CC[C@@H]2[C@H](CO)Nc3ccc(-c4cccc(F)c4)cc3[C@@H]21,inconclusive: 51.6%
20,CCC(=O)N1[C@H](CO)[C@H](c2ccc(-c3ccccc3OC)cc2)C12CN(C(C)=O)C2,inactive: 13.8%
21,CN(C)CCN(Cc1cccs1)S(=O)(=O)c1csc(C(N)=O)c1,inconclusive: 20.2%
22,COc1ccc(-c2ccc([C@@H]3[C@@H](CO)N4CCCCN(C(=O)NC(C)C)C[C@H]34)cc2)cc1,active: 63.6%
23,COc1ccccc1CNC(=O)C[C@H]1C[C@H]2c3cc(NC(=O)Nc4ccc(C(F)(F)F)cc4)ccc3O[C@H]2[C@@H](CO)O1,inactive: -1.4%

row,Compound,CPE inhibition
1,CC(C)NC(=O)Nc1ccc2c(c1)C(=O)N([C@@H](C)CO)C[C@@H](C)[C@@H](CN(C)S(=O)(=O)c1cn(C)cn1)O2,inactive: -5.1%
2,C[C@@H]1CCCCO[C@@H](CN(C)S(=O)(=O)c2cccs2)[C@H](C)CN([C@H](C)CO)C(=O)c2cc(NC(=O)CCC(F)(F)F)ccc2O1,inconclusive: 59.9%
3,CCN(CC)S(=O)(=O)c1ccc(C(=O)OCC(=O)NCCN2C(=O)CSC2=O)cc1,inconclusive: 28%
4,O=C1CCC[C@@H]2CC(N3CCCCC3)C[C@@H]3CCN1[C@H]23 (stereo not given in full),inconclusive: 20.4%
5,Cc1cc(NC(=S)NC(=O)c2ccco2)c2ccccc2n1,inactive: 10.4%
6,Cc1ccc(S(=O)(=O)NN2C(=O)c3ccccc3NC2C)cc1 (stereo not given),inconclusive: 27.7%
7,C[C@@H]1CN([C@@H](C)CO)C(=O)c2cc(NC(=O)Cc3cn(C)c4ccccc34)ccc2O[C@H]1CN(C)Cc1ccc(Cl)c(Cl)c1,inactive: -7.05%
8,Cc1noc(C)c1S(=O)(=O)N(C)C[C@H]1OCCCC[C@@H](C)Oc2ccc(NC(=O)Nc3ccccc3)cc2C(=O)N([C@@H](C)CO)C[C@H]1C,inconclusive: 33.5%
9,COc1ccc([N+](=O)[O-])cc1NC(=O)C(C)OC(=O)C1CC(=O)N(Cc2ccco2)C1 (stereo not given),active: 95.5%
10,Nc1nc(-c2ccc([N+](=O)[O-])cc2)cc(=O)[nH]1,active: 133%
11,O=S1(=O)CC(N2CCSCC2)CN1Cc1cn(Cc2ccc(F)cc2)nn1 (stereo not given),inconclusive: 32.1%
12,CCCC(=O)N(Cc1cc(=O)[nH]c2ccccc12)c1cccc(C)c1,active: 29.2%
13,COc1ccc(OC)c(N2C(=O)c3ccccc3C2c2nnnn2-c2ccc3c(c2)OCCO3)c1 (stereo not given),inconclusive: 79.4%
14,CCSc1nc2sc3c(c2c(=O)n1-c1ccccc1C)CCN(C)C3,inconclusive: 34.1%
15,Cc1ccc(NC(=O)CSc2nnc3n2CCCCC3)cc1S(=O)(=O)N1CCOCC1,inconclusive: 24.9%
16,CN(C)c1ccc(C(CNC(=O)c2ccccc2F)c2c[nH]c3ccccc23)cc1 (stereo not given),inactive: -2.94%
17,C[C@H]1CN([C@@H](C)CO)S(=O)(=O)c2ccc(C#CC3CC3)cc2O[C@H]1CN(C)C(=O)c1cccnc1,inconclusive: 38%
18,C[n+]1ccccc1COc1ccc(C(C)(C)C)cc1,active: 22.7%
19,C[C@H](CO)N1C[C@H](C)[C@H](CN(C)S(=O)(=O)c2cn(C)cn2)Oc2ccc(NC(=O)Cc3cn(C)c4ccccc34)cc2C1=O,inactive: -1.55%
20,Cc1nc(SCc2ccccc2F)c2oc3ccccc3c2n1,inconclusive: 24.3%
21,COc1ccc(-c2noc(CN(C(=O)c3ccc4c(c3)OCO4)C(C)C)n2)cc1OC,inconclusive: 46.2%
22,C[C@@H]1CN([C@H](C)CO)C(=O)c2cc(NS(=O)(=O)c3ccccc3)ccc2O[C@@H](C)CCCCO[C@H]1CN(C)Cc1ccc(Cl)c(Cl)c1,active: 23.1%

# Single values from the list.
# CPE inhibition, COc1ccc([N+](=O)[O-])cc1NC(=O)C(C)OC(=O)C1CC(=O)N(Cc2ccco2)C1 (stereo not given) is entered as active: 95.5%
# CPE inhibition, C[C@@H]1CCCCO[C@@H](CN(C)S(=O)(=O)c2cccs2)[C@H](C)CN([C@H](C)CO)C(=O)c2cc(NC(=O)CCC(F)(F)F)ccc2O1 is entered as inconclusive: 59.9%
# CPE inhibition, Nc1nc(-c2ccc([N+](=O)[O-])cc2)cc(=O)[nH]1 is entered as active: 133%
